According to PubChem BioAssay AID1259354 (Paczesny and Yang Labs, IUPUI and University of Michigan, 2018):
Where “and” joins values, the source holds several entries; their conditions need not be identical. Equal entries are not always repeated. Out of some 78,000 compounds screened, about 1,800 (2.3%) were called active. The shares of active, inactive and inconclusive entries below differ from those in the screen. Rule as the data show it: active = inhibition above about 30%; inconclusive = mostly about 10% to 28%; inactive = weaker than that.

The chains behind the UniProt entries cited, without tags or fusion partners. Where a name states a change or a piece, a line headed by the entry shows the natural chain unless it says otherwise.
UniProt Q01638: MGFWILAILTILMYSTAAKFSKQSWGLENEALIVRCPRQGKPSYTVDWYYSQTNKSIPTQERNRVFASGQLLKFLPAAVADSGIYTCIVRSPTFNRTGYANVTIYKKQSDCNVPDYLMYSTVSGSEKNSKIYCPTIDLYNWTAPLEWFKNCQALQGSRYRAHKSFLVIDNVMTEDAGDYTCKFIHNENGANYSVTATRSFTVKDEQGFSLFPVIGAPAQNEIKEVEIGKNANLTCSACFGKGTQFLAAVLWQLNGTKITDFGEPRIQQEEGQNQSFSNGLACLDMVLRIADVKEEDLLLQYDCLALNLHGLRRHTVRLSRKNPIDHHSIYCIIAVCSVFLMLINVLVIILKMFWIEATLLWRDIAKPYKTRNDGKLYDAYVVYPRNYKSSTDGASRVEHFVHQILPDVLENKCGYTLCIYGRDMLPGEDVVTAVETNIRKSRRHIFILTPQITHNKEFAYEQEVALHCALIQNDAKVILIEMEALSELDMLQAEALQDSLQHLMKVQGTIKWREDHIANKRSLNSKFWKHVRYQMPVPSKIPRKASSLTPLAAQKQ

biological target: Interleukin-1 receptor-like 1 (Homo sapiens) (UniProt Q01638); assay: blocks human ST2 binding to IL-33, primary screen, biochemical, AlphaLISA (AID 1259354); settings: AlphaLISA ST2-Fc/biotin-IL-33 interaction, 1 h; at 17 µM, active compounds read high

Row | SMILES | inhibition
1 | Cc1ccc2nc(-c3cc(N=Cc4cc([N+](=O)[O-])ccc4O)ccc3O)oc2c1 | inconclusive: 23%
2 | Cc1cn(CCn2cnc(-c3ccccc3)c2-c2cnn3cccnc23)nn1 | inconclusive: 13%
3 | Cc1c(N)cc(C(=O)O)cc1[N+](=O)[O-] | inactive
4 | Cc1cncc(C(=O)N2CCCC(O)(CN(C)C)CC2)c1 (stereo not given) | inactive
5 | COc1ccc(CNC(=O)[C@@H]2Cc3nc[nH]c3CN2C)cc1 | inactive
6 | O=C(Nc1cc2ccccc2oc1=O)c1ccc(Cl)c([N+](=O)[O-])c1 | inconclusive: 21%
7 | CC(=O)Nc1cccc(C(=O)NC2CC(=O)N(CCc3ccccc3)C2)c1 (stereo not given) | inactive
8 | Cc1nc(N2CCCC2)nc(-c2ccccc2CN2CCOCC2)c1C | inconclusive: 20%
9 | Oc1oc(-c2ccccc2F)nc1C=Nc1ccc(Cl)cc1Cl | inconclusive: 15%
10 | c1ccc2c3c([nH]c2c1)CN(Cc1ccsc1)CC3 | inactive
11 | O=c1[nH]c2ccc(S(=O)(=O)Nc3cccc(F)c3)cc2s1 | inactive
12 | N#CSCCCOc1ccccc1Br | inactive
13 | C=CCNC(=O)N[C@H]1CCN2C(=O)c3cc(-c4ccccc4F)ccc3NC(=O)[C@@H]2C1 | inconclusive: 25%
14 | Cc1nonc1CN(C)C(=O)c1cc(C(C)C)on1 | inconclusive: 13%
15 | CCOc1ccc(NC2=CC(=NS(=O)(=O)c3ccc(OCC)cc3)c3ccccc3C2=O)cc1 | active: 93%
16 | CCCS(=O)(=O)N1CCC(C(=O)NCCN(C)C)CC1 | inconclusive: 17%
17 | CCOc1ccccc1N1CCN(Cc2ccccc2[N+](=O)[O-])CC1 | inconclusive: 18%
18 | O=[N+]([O-])c1ccc(CN2CCc3ccccc3C2)cc1 | inconclusive: 20%
19 | Clc1ccccc1-n1ncnc1-c1cccc(Br)c1 | inconclusive: 16%
20 | CN(Cc1ccccc1)c1ncnc2c1cnn2-c1ccccc1 | inconclusive: 11%
21 | O=C(Nc1ccccc1)O[C@@H]1CO[C@H]2[C@@H]1OC[C@@H]2NS(=O)(=O)c1cccs1 | inconclusive: 15%
22 | COc1cccc(C2CC(c3cccc(C)c3)n3nc(N)nc3N2)c1 (stereo not given) | inconclusive: 16%
23 | CSc1nc2ccc(NC(=O)CSc3nc4ccc(N)cc4s3)cc2s1 | inconclusive: 18%
24 | COCC1CCCN(C(=O)c2ccc(N(C)Cc3ccsc3)nc2)C1 (stereo not given) | inactive

Row | SMILES | inhibition
25 | COC(=O)C1C(=O)C2=C(CC1C)NC(C)=C(C(=O)OCCOC(C)C)C2c1cccc(O)c1 (stereo not given) | inactive
26 | CCOc1ccc2c(c1)sc(=NC(=O)c1c(OC)cccc1OC)n2C | inactive
27 | COc1ccc(NC2(C(=O)N3CCn4cncc4C3)CCCC2)cc1 | inconclusive: 11%
28 | COc1ccc(NC(=O)CCCn2nc([N+](=O)[O-])c(Br)c2C)cc1OC | inconclusive: 13%
29 | Nc1nc(Cl)nc2c1ncn2[C@@H]1O[C@H](CO)[C@@H](O)[C@H]1O | inconclusive: 16%
30 | O=c1[nH]c2ccccc2n1CCCN1CCN(C(c2ccccc2)c2ccccc2)CC1 | inconclusive: 15%
31 | CCOC(=O)c1c(-c2ccccc2)oc2cc(Br)c(OCC(=O)OC)cc12 | inconclusive: 14%
32 | CC1CCc2cc(F)ccc2N1S(=O)(=O)c1ccc([N+](=O)[O-])cc1 (stereo not given) | active: 36%
33 | CCOC(=O)Oc1ccc2c(=O)c(Oc3ccc(OC)cc3)coc2c1 | inactive
34 | COc1cc(-c2ccc(NC(=O)c3ccc(C)o3)c(OC)c2)ccc1NC(=O)c1ccc(C)o1 | inconclusive: 22%
35 | O=C(C(Cc1cnc[nH]1)n1cccc1)N1CCC2(CC1)C(=O)Nc1ccccc12 (stereo not given) | inconclusive: 11%
36 | O=C(CCC1CCN(C(=O)C2Cc3ccccc3O2)CC1)Nc1ccccc1 (stereo not given) | inconclusive: 14%
37 | COc1cc(C2C(C(=O)Nc3ccccn3)=C(C)NC3=C2C(=O)CC(C)(C)C3)ccc1O (stereo not given) | inactive
38 | CCCCC1C(=O)N(C)CCN1Cc1ccc(O)c(O)c1 (stereo not given) | inconclusive: 19%
39 | COc1ccccc1C(=O)Nc1ccc(Cl)c(Cl)c1 | inactive
40 | CN1CCNC(=O)C12CCN(C(=O)C1=CC(=O)CC(C)(C)O1)CC2 | inconclusive: 13%
41 | CN1CC(=O)N2C[C@H](NC(=O)c3coc4ccccc4c3=O)C[C@H]2C1=O | inconclusive: 20%
42 | O=C(Cc1c[nH]c2ccccc12)N1CCC(O)(C(=O)O)CC1 | inconclusive: 11%
43 | CC(=O)Nc1ccc(NC2=CC(=NS(=O)(=O)c3ccccc3)c3ccccc3C2=O)cc1 | active: 83%
44 | O=[N+]([O-])c1ccccc1S(=O)(=O)Nc1cccc2cccnc12 | active: 33%
45 | C=CCn1c(SCC(=O)NCc2ccc3c(c2)OCO3)nc2sc3c(c2c1=O)CCCC3 | inconclusive: 11%
46 | O=S(=O)(c1ccccc1)N1N=C(c2cccs2)CC1c1ccc(F)cc1 (stereo not given) | inconclusive: 25%
47 | C[C@@H]1CN(C2(C(=O)NCCn3cccn3)Cc3ccccc3C2)C[C@H](C)O1 | inconclusive: 10%
48 | CC1=NN(c2ccc(Cl)cc2)C(=O)C1 | inconclusive: 13%

4 entries from above, field by field:
CCOC(=O)c1c(-c2ccccc2)oc2cc(Br)c(OCC(=O)OC)cc12
  inhibition: inconclusive: 14%
CC1CCc2cc(F)ccc2N1S(=O)(=O)c1ccc([N+](=O)[O-])cc1 (stereo not given)
  inhibition: active: 36%
CCOC(=O)Oc1ccc2c(=O)c(Oc3ccc(OC)cc3)coc2c1
  inhibition: inactive
COc1cc(-c2ccc(NC(=O)c3ccc(C)o3)c(OC)c2)ccc1NC(=O)c1ccc(C)o1
  inhibition: inconclusive: 22%

Next entries follow:

Row | SMILES | inhibition
49 | Cc1ccc(NS(=O)(=O)c2cccc3cccnc23)cc1Cl | inconclusive: 18%
50 | CCc1ccccc1C(=O)N1CCNCC1C(=O)N1CCOCC1 (stereo not given) | inactive
51 | CC1CCCN(c2ncnc3c2cnn3-c2ccc(Cl)cc2)C1 (stereo not given) | inconclusive: 12%
52 | O=C(Nc1nc(-c2ccccn2)cs1)c1sc2ccccc2c1Cl | inconclusive: 17%
53 | COc1ccc(CN2CCN(Cc3cccc([N+](=O)[O-])c3)CC2)cc1 | inconclusive: 18%
54 | CCN(CC)C(=O)CSc1cc(=O)n(C)c2cc(Cl)ccc12 | inactive
55 | O=C(CCCn1c(=O)c2sccc2n(Cc2cccnc2)c1=O)NCc1ccc2c(c1)OCO2 | inconclusive: 27%
56 | Oc1cccc(-c2nccn2CCCOc2cccnc2)c1 | inconclusive: 18%
57 | Cc1cc(I)ccc1N=Cc1nc(-c2ccccc2F)oc1O | inconclusive: 18%
58 | COc1ccc(CCn2nc(C(=O)NC3CC3)c3c2CCN(C(=O)C2Cc4ccccc4O2)C3)cc1 (stereo not given) | inactive
59 | COCCN(C(=O)c1ccc(C)c(NC(=O)C2CC2)c1)C(C)C | inconclusive: 22%
60 | COc1cc(NC(=O)c2ccc(Cl)cc2)c(Cl)cc1N | inconclusive: 24%
61 | CC(C)(C)c1nc(CN2CCCCC2)cc(CN2CCCCC2)c1O | inconclusive: 29%
62 | C#CCN(C)C(=O)C[C@@H]1CCNC[C@@H]1Cc1cc(CCCC)on1 | inconclusive: 16%
63 | CCn1c2ccccc2c2nc3ccccc3nc21 | inconclusive: 29%
64 | O=C(c1ccc(NC2CCC(O)CC2)nc1)N1CCC(CCn2cccn2)CC1 (stereo not given) | inconclusive: 19%
65 | COc1ccc(Nc2cc(C)nc(N3CCN(S(=O)(=O)c4ccc(Cl)cc4)CC3)n2)cc1 | inconclusive: 14%
66 | COCc1nc(NCCNC(=O)c2ccc(F)cc2)c2cnn(C)c2n1 | inconclusive: 14%
67 | CC1=CC(C)C(c2ccccc2)NC1c1ccccc1 (stereo not given) | inconclusive: 12%
68 | CCOc1ccc(N=c2scc(-c3ccc(F)cc3)n2CCCO)cc1 | active: 55% and active: 40%
69 | OCCCn1cnc(-c2ccccc2)c1-c1ccc(-c2cncnc2)cc1 | inactive
70 | COc1ccc(C(=O)NC[C@@H]2C=C(C)[C@H](CC(=O)N3CCN(C)CC3)C[C@H]2C(C)C)cc1 | inconclusive: 11%
71 | CCn1ccc2c(CN3[C@@H]4CC[C@H]3CNC(=O)C4)cccc21 | inconclusive: 12%
72 | CC(C)CCN1CCN(Cc2nc3ccccc3[nH]2)CC1CCO (stereo not given) | inactive

Row | SMILES | inhibition
73 | Cn1cnc([N+](=O)[O-])c1Sc1ncnc2nc[nH]c12 | inconclusive: 15%
74 | Cc1ccccc1N1C(N)=C(C#N)C(c2ccc3c(c2)OCO3)C2=C1CCCC2=O (stereo not given) | inconclusive: 12%
75 | N#CC1C(=O)NC(=O)C([n+]2ccccc2)C1c1ccc(Br)cc1 (stereo not given) | inconclusive: 15%
76 | O=C1CCCC2=C1C(c1cccc(Br)c1)Nc1ccccc1N2 (stereo not given) | inconclusive: 24%
77 | Cc1cccc(-c2ncc(CN3CCCN(C(=O)C4CCCO4)CC3)cn2)c1 (stereo not given) | inconclusive: 16%
78 | Cc1cccc(CN(C)[C@@H]2c3ccccc3C3(CCNCC3)[C@H]2O)n1 | inactive
79 | COc1ccc(NC(=O)N2CCC(n3c(C)nc4cccnc43)CC2)cc1 | inactive
80 | Cn1nnc2c(sc3nc(N4CCOCC4)c4c(c32)CCCC4)c1=O | inconclusive: 13%
81 | Cc1cccc(CSC2=NCCN2C(=O)c2ccccc2C)c1 | inactive
82 | CNS(=O)(=O)c1cccs1 | inactive
83 | CC[C@H]1CN(S(=O)(=O)c2c(C)noc2C)CC[C@H]1CC(=O)Nc1ccccc1 | inconclusive: 16%
84 | Cc1ccc(N2CN=c3s/c(=C\c4cccc([N+](=O)[O-])c4)c(=O)n3C2)cc1 | inconclusive: 17%
85 | CCn1cc(CN(Cc2sc(C)nc2C)C(C)C)cn1 | inconclusive: 19%
86 | CC1=C(C(=O)N(C)CC2CCN(CCc3ccc(F)cc3)CC2)OCCO1 | inconclusive: 10%
87 | CCSc1nc(CC(=O)NCc2c(F)cccc2F)cs1 | inactive
88 | Cn1c(C(=O)NCc2cccnc2)cc2c(=O)n3ccccc3nc21 | inactive
89 | O=C(NCC1CCCN(S(=O)(=O)c2ccc(F)c(Cl)c2)C1)c1cccnc1 (stereo not given) | inactive
90 | O=c1c2ccccc2c(-c2ccc(F)cc2)nn1-c1cc(N2CCOCC2)ccc1[N+](=O)[O-] | inconclusive: 12%
91 | Cc1cccc(Oc2nc3c(c(=O)n(Cc4ccccc4F)c(=O)n3C)n2C)c1 | inconclusive: 17%
92 | CCC1Oc2ccccc2N(Cc2ccccc2C)C1=O (stereo not given) | inconclusive: 13%
93 | N#Cc1ccc(NC(=O)C2CC(=O)N(c3ccc(Br)cc3)C2)cc1 (stereo not given) | inactive
94 | NC(=O)c1ccccc1NC(=O)c1cc(-c2cccs2)nc2ccccc12 | inconclusive: 13%
95 | CSc1nc2c(c(=O)[nH]1)C(c1ccc(N(C)C)cc1)C1=C(CC(C)(C)CC1=O)N2 (stereo not given) | inactive
